From US20170247437A1 (ONCOMED PHARMACEUTICALS, published 2017) come the findings set out here.

Chains of the proteins cited; added tags and fusions are not shown. Lines headed by an entry give the natural chain unless they say otherwise; changes in a name come on top.
UniProt Q2MKA7: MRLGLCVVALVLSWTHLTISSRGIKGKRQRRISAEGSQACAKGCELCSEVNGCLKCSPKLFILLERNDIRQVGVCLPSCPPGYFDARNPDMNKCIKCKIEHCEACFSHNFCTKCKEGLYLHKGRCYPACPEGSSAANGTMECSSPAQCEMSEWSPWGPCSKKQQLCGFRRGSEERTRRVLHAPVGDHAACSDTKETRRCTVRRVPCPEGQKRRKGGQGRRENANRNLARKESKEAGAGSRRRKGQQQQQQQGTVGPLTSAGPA

These are yes or no findings as the source states them, for the method shown. Some binding calls cover weakened binding; strength is not graded here.

Test [1] deals with FLAG-RSPO1furin-CD4TM-GFP (human) (UniProt Q2MKA7). The experiment in a line: FACS, serial antibody dilutions on HEK-293 cells transfected with FLAG-RSPO1furin-CD4TM-GFP, APC anti-IgG detection. In general terms: Flow cytometry measures light scatter and fluorescence of single cells or particles in a stream.
Test [2] concerns the target T1, recombinant human RSPO1 (R&D Systems) (human, UniProt Q2MKA7 21-263).
T1 construct: Bought protein
The experiment in a line: ELISA on plate-coated recombinant human RSPO1; h89M5-H2L2 as reference standard and positive control. For orientation: In an ELISA, binding on a coated surface is turned into a signal by an enzyme label.

B1: first generation humanized anti-RSPO1 antibody h89M5-H2L2 (antibody, human IgG2, kappa, V domains shown)
VH: QVQLVQSGAEVKKPGASVKVSCKTSGYTFTGYTMHWVRQAPGQRLEWMGGINPNNGGTTYNQNFKGRVTITRDTSASTAYMELSSLRSEDTAVYYCARKEFSDGYYFFAYWGQGTLVTVSS
VL: DIQMTQSPSSLSASVGDRVTITCKASQDVIFAVAWYQQKPGKAPKLLIYWASTRHTGVPSRFSGSGSGTDYTLTISSLQPEDFATYYCQQHYSTPWTFGGGTKVEIKR
With B1, the binding entry in test [1] and in test [2] was “binds” each time.

B2: second generation humanized anti-RSPO1 antibody h89M5-H8L5 (antibody, human IgG1, kappa, V domains shown)
VH: EVQLVQSGAEVKKPGESLRISCKGSGYSFTGYTMHWVRQMPGKGLEWMGGINPNNGGTTYNQNFKGHVTISADKSISTAYLQWSSLKASDTAMYYCARKEFSDGYYFFAYWGQGTLVTVSS
VL: DIVMTQSPDSLAVSLGERATINCKASQDVIFAVAWYQQKPGQPPKLLIYWASTRHTGVPDRFSGSGSGTDFTLTISSLQAEDVAVYYCQQHYSTPWTFGGGTKVEIKR
notes: Humanized version of mouse antibody 89M5, with the same CDRs as h89M5-H2L2; also called h89R5-H8L5
For the molecule B2, the binding result in test [1] was “binds”.
